# Measured values published in article PMC8602323.
# The chains behind the UniProt entries cited, without tags or fusion partners.
# UniProt P56477: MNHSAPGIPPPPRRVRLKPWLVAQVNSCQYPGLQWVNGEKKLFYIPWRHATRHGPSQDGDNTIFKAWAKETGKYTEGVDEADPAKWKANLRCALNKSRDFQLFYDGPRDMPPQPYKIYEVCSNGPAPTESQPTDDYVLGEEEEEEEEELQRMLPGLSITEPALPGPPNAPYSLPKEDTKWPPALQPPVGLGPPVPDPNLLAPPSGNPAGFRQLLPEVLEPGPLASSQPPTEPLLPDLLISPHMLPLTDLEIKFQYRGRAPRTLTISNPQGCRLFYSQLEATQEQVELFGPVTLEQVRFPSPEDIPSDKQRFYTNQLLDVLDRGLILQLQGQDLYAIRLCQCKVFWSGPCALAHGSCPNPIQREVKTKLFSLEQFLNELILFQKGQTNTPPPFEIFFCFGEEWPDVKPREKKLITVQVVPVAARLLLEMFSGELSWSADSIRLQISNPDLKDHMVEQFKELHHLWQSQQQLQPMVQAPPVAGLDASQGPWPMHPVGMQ
# UniProt Q9QVP9: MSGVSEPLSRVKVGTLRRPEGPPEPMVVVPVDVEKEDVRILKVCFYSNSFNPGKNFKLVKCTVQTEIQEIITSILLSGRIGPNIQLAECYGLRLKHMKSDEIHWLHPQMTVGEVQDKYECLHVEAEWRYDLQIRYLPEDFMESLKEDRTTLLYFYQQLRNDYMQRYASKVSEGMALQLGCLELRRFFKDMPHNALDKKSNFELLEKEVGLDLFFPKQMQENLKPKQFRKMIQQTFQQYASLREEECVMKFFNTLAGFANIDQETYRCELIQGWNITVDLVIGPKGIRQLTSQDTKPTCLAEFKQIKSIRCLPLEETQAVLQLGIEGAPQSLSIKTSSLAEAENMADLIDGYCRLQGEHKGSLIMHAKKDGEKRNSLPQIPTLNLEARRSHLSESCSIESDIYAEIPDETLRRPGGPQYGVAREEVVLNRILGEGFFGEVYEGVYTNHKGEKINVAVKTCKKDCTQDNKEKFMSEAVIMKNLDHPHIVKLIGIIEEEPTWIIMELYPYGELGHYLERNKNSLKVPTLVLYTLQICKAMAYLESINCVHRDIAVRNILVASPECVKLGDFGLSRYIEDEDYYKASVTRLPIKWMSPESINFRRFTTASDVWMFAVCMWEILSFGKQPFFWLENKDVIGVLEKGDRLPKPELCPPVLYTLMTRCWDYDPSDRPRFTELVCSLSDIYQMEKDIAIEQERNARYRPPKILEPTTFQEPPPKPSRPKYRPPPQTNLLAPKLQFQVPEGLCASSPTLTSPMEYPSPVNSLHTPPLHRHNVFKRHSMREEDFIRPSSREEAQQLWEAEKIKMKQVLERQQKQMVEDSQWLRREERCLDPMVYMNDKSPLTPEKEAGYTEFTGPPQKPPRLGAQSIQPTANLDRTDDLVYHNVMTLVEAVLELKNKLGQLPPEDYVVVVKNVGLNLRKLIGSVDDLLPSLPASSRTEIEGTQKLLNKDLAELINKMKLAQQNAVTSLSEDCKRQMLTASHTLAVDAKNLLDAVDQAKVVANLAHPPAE
# Results are given in words; binding and its absence hold for the method and conditions named. Binding seen in cells or lysates may run through a third protein. Some binding calls cover weakened binding; strength is not graded here.
# Target: endogenous IRF5 of RAW264.7 macrophages (mouse (endogenous in RAW264.7)) (UniProt P56477)
# Assay: co-IP; endogenous proteins of RAW264.7 macrophages stimulated with LPS for 10 min; immunoprecipitated with IRF5, PYK2 or isotype control antibody; 1% TX-100 lysis buffer; immunoblot
substance,measurement,value
endogenous PYK2 of RAW264.7 macrophages (from UniProt Q9QVP9 1-1009) (enzyme),binding,binds
